# Whole data set: some 33,000 sequences, median “E-score (-0.5 to 0.5)” near -0.0059, cut for the highest 2% near 0.26. The list shows a part of the results.
# Target: T1, Cin5 (UniProt P40917)
# T1 sequence: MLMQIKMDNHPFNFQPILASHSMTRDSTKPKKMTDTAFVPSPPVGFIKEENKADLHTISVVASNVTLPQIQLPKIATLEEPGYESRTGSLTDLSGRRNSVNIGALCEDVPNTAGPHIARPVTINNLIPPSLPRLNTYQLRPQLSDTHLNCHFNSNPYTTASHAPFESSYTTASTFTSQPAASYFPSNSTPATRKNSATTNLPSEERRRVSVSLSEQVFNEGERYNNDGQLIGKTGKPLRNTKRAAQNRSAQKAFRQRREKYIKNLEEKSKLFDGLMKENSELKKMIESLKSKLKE
# Experiment: PBM E-score (8-mer binding enrichment) (E-score (-0.5 to 0.5)); higher = stronger / more preferred TF binding
# Conditions: protein concentration: 100 nM; construct: GST-full length
# Summary of the method: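 The E-score, a modified Wilcoxon-Mann-Whitney statistic, was computed by the Universal PBM Analysis Suite for every ungapped eight-base word pooled with its reverse complement. Scans behind it were normalised with masliner after bound GST-tagged yeast transcription factors were detected with fluorescent anti-GST. The proteins, at about 100-200 nM, had been applied to universal all-10-mer Agilent arrays made double-stranded by primer extension.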
row,Sequence,PBM E-score
1,CCGTATCG,-0.152
2,CCGCGCAG,-0.0676
3,GGGCCACA,-0.18
4,CCGTCGTC,-0.097
5,ATTCGCGC,0.184
6,CAGACGAG,-0.146
7,CGCTTAAC,0.0286
8,AATCTACA,0.172
9,AGTGACAC,0.00454
10,CCCTACTC,0.0255
11,AGCTTGAC,-0.0987
12,CCCCCTTA,-0.342
13,GAATCACA,0.0575
14,AAAGCTCT,-0.224
15,AACCTATC,0.0619
16,CTTGGCTC,-0.238
17,AGCGGAGG,-0.216
18,GGCGTTAC,-0.265
19,ACCTTAGG,-0.104
20,ACGTAGGC,-0.0352
21,AGATACCG,-0.0524
22,CTTACATA,0.358
23,CAATCGTC,0.124
24,CCGTCACA,-0.236
25,TACTTTCA,0.119

# Copied from the list:
# CAGACGAG – PBM E-score: -0.146
# CTTGGCTC – PBM E-score: -0.238
# AACCTATC – PBM E-score: 0.0619
# CAATCGTC – PBM E-score: 0.124
# ATTCGCGC – PBM E-score: 0.184
# CTTACATA – PBM E-score: 0.358
# AATCTACA – PBM E-score: 0.172

# Next records follow:

row,Sequence,PBM E-score
1,ACGAAGGG,-0.237
2,ATACACAC,0.00594
3,GAACAAAC,0.226
4,AGTCGTGG,-0.00757
5,GGAATCGA,-0.0531
6,AACATCAC,0.011
7,GTATCACA,0.154
8,TTACAGAA,-0.0682
9,CACGGTTA,0.0993
10,CCATAGAA,-0.023
11,CAAATTCC,0.132
12,TGCGTTAA,0.053
13,CAAAGGGA,-0.18
14,ACGGCGGA,-0.0989
15,AGCACGTC,-0.00862
16,CCGGGCCC,-0.0989
17,AGTACCAA,0.167
18,CTTGACTC,-0.162
19,ACAGACGG,-0.123
20,AAATGGCC,-0.16
21,GCTGTGGA,-0.0281
22,ATGAGGCC,-0.156
23,ACTTACGG,0.104
24,AGCCGATA,-0.0478
25,GGTCTGAA,-0.0516

row,Sequence,PBM E-score
1,GTAGAAAA,-0.0209
2,TGATCTAA,0.0735
3,AGGCTTCC,-0.0374
4,CCCGTGAA,-0.0336
5,GAATCGCC,-0.111
6,TTGGTAAA,-0.168
7,AGGAGGCA,-0.119
8,CGGATGTA,-0.0153
9,TGCTGACA,0.245
10,CGCAAAAA,0.0785
11,CAAGAATC,0.133
12,CAGGACAC,-0.137
13,TATAATCA,0.342
14,ATCAACGA,0.0637
15,AACAACCG,0.0754
16,AAATATAT,0.295
17,AACACCCA,-0.0466
18,ACATTGCG,0.00233
19,ATTCGTGA,0.13
20,GCGCTGTA,0.0273
21,GCACGAAA,0.11
22,GCAGCCGA,-0.00044
23,GAGTGCCA,-0.235
24,ATAGAGAT,0.133
25,ATCATATC,0.209

row,Sequence,PBM E-score
1,GACAATGA,-0.0974
2,GCCAAGTA,-0.169
3,CGCTACTA,0.225
4,AACAGTCG,-0.0526
5,AAAGCAAC,-0.0159
6,GGGGATAA,0.089
7,ACTCCGGG,-0.0634
8,CCCTTCGC,-0.201
9,TCTAGCCA,0.0369
10,CAAGCCGA,0.0303
11,GGTCTTCA,-0.306
12,AAATGTAT,0.276
13,CAGATGTA,-0.00052
14,AACATTAT,0.261
15,AAGCACAG,0.0539
16,CGGGTTCA,-0.123
17,CATATAAC,0.221
18,ACCCCACT,0.205
19,ACAGTATG,0.125
20,CACTTCCA,0.00352
21,AGCGCCTC,-0.188
22,AGTCCACA,-0.16
23,GCGCACTA,0.015
24,GCGCGCCC,-0.0675
25,AAGTGAAA,0.171

row,Sequence,PBM E-score
1,ACTATTGC,0.144
2,CTACAACA,-0.0362
3,ATAGACGA,0.066
4,CCATGAAG,-0.1
5,CTAGCCCA,-0.117
6,AGTTCAGA,-0.082
7,CGCTCACA,0.00496
8,AGGACCTG,-0.296
9,ATCAGCTA,-0.0705
10,AGGATGTC,-0.0361
11,GAAACATA,0.253
12,CGATGACA,0.0915
13,CTGGCGGA,-0.172
14,GTGCGGCA,-0.149
15,ACAATAGC,-0.0152
16,CCGTCTGA,-0.164
17,CCGTTTGA,-0.17
18,ACTTAAGA,0.0404
19,CCGCTCAC,-0.1
20,GCTTACAC,0.391
21,ATCCTGCC,-0.059
22,ACGTTGGG,-0.0381
23,GGAACAAC,0.0525
24,TCAGGAGA,0.00383
25,CCGTAACG,-0.112

row,Sequence,PBM E-score
1,ACGGTATA,0.00213
2,GAGGGAAC,-0.235
3,GAGGTAAA,0.073
4,AACGTGTC,-0.11
5,GGAGAGCC,-0.344
6,GAAACGTA,0.141
7,CCGAGGAC,-0.142
8,GAACAGCA,0.0701
9,ACAGTCGT,-0.129
10,GTGGCGAA,-0.0226
11,AAGCGACT,-0.0539
12,GCTCAACA,0.00252
13,ATGACAAC,0.183
14,AAAATTCC,0.19
15,GTTTCCCA,0.146
16,GATGCGAC,0.00124
17,CACGAAGC,-0.0589
18,ACTTGCCT,0.0696
19,CGCGGCAC,-0.0168
20,ACGGGGTA,-0.0731
21,GCATTTGA,0.0701
22,ACTTCGTC,0.174
23,AGTTCCGA,0.123
24,CCGACTTC,-0.279
25,TGCATAAA,0.088

row,Sequence,PBM E-score
1,AGGACCTC,-0.0477
2,GGTTGTCA,0.0406
3,AAGACTCT,0.106
4,CTAGGACA,-0.0799
5,AAGCTTCA,-0.0361
6,ACAATACT,0.237
7,CACCGCCC,0.00407
8,CTTGCTGA,0.0854
9,CCTATAGG,-0.0993
10,ACACGGAT,0.128
11,CGCGAGTC,-0.102
12,CGAGTGTA,-0.0391
13,GCAAACCC,-0.148
14,AAACGGGT,0.0105
15,GTAAGGGA,-0.0123
16,CTTAATCA,0.205
17,AACGTTGC,0.0588
18,AGCAGCGA,0.0135
19,ACGACATA,0.0814
20,ATCGCAGC,0.0659
21,GCTGTAAA,-0.0756
22,AAACGGGG,0.0392

# Reprinted at random: four entries already listed.
row,Sequence,PBM E-score
1,AGGACCTC,-0.0477
6,ACAATACT,0.237
10,ACACGGAT,0.128
21,GCTGTAAA,-0.0756
